# Assay results published in patent US20250297004A1, “NECTIN-4 BINDING AGENTS” (INNATE PHARMA, priority 2022, published 2025).
# Some of these results come from one statement about several compounds together.
# B1: H3L0 (antibody, human IgG1, V domains shown)
# VH: QVQLVQSGAEVKKPGASVKVSCKASGYIFTSYWMHWVRQAPGQGLEWMGEIDPSDSYTNYNQKFKGRVTMTLDKSTSTTYMELSSLRSEDTAVYYCARGYGNYGDYWGQGTLVTVSS
# VL: DIVMTQSPLSLPVTPGEPASISCRSSKSLLHSNGITYLYWYLQKPGQSPQLLIYQMSNLASGVPDRFSGSGSGTDFTLKISRVEAEDVGVYYCAQNLELPWTFGGGTKVEIK
# notes: human IgG1 isotype
# B2: H4L2 (antibody, human IgG1, V domains shown)
# VH: QVQLVQSGAEVKKPGASVKVSCKASGYIFTSYWMHWVKQAPGQGLEWMGEIDPSDSYTNYNQKFKGRVTMTLDKSTSTTYMELSSLRSEDTAVYYCARGYGNYGDYWGQGTLVTVSS
# VL: DVVMTQSPLSNPVTPGEPASISCRSSKSLLHSNGITYLYWYLQKPGQSPQLLIYQMSNLASGVPDRFSSSGSGTDFTLKISRVEAEDVGVYYCAQNLELPWTFGGGTKVEIK
# notes: human IgG1 isotype
# B3: H5L2 (antibody, human IgG1, V domains shown)
# VH: QVQLVQSGAEVKKPGASVKVSCKASGYIFTSYWMHWVKQRPGQGLEWMGEIDPSDSYTNYNQKFKGRVTMTLDKSTSTTYMELSSLRSEDTAVYYCARGYGNYGDYWGQGTLVTVSS
# VL: DVVMTQSPLSNPVTPGEPASISCRSSKSLLHSNGITYLYWYLQKPGQSPQLLIYQMSNLASGVPDRFSSSGSGTDFTLKISRVEAEDVGVYYCAQNLELPWTFGGGTKVEIK
# notes: human IgG1 isotype
# B4: H6L3 (antibody, human IgG1, V domains shown)
# VH: QVQLVQSGAEVKKPGASVKVSCKASGYIFTSYWMHWVKQRPGQGLEWIGEIDPSDSYTNYNQKFKGRVTMTLDKSTSTTYMELSSLRSEDTAVYYCARGYGNYGDYWGQGTLVTVSS
# VL: DVVMTQSALSNPVTPGEPASISCRSSKSLLHSNGITYLYWYLQKPGQSPQLLIYQMSNLASGVPDRFSSSGSGTDFTLKISRVEAEDVGVYYCAQNLELPWTFGGGTKVEIK
# notes: human IgG1 isotype
# B5: H7L2 (antibody, human IgG1, V domains shown)
# VH: QVQLVQSGAEVKKPGASVKVSCKASGYIFTSYWMHWVKQRPGQGLEWIGEIDPSDSYTNYNQKFKGRVTLTLDKSTSTTYMELSSLRSEDTAVYYCARGYGNYGDYWGQGTLVTVSS
# VL: DVVMTQSPLSNPVTPGEPASISCRSSKSLLHSNGITYLYWYLQKPGQSPQLLIYQMSNLASGVPDRFSSSGSGTDFTLKISRVEAEDVGVYYCAQNLELPWTFGGGTKVEIK
# notes: human IgG1 isotype
# Tested on: Nectin-4 internalization on SUM190 cell line
# Assay: Fab-ZAP intracellular internalization assay (CTG readout) on SUM190
# Assay type: cell-based, human
# Details: text summary of the experiments
row,Molecule,internalization compared to the parental antibody (5E7)
1,B1,≥ 75%
2,B2,≥ 75%
3,B3,≥ 75%
4,B4,≥ 75%
5,B5,≥ 75%
